No constants are given. Whether binding was seen depends on the method and setting. In cells and extracts the contact can be indirect. Some binding calls cover weakened binding; strength is not graded here.
Biological target: GluN3A, endogenous in mouse brain (mouse (endogenous in cortex and hippocampus)) (UniProt A2AIR5)
Assay: co-IP

The chains behind the UniProt entries cited, without tags or fusion partners. Residues count along the entry.
UniProt A2AIR5, residues 27-1135: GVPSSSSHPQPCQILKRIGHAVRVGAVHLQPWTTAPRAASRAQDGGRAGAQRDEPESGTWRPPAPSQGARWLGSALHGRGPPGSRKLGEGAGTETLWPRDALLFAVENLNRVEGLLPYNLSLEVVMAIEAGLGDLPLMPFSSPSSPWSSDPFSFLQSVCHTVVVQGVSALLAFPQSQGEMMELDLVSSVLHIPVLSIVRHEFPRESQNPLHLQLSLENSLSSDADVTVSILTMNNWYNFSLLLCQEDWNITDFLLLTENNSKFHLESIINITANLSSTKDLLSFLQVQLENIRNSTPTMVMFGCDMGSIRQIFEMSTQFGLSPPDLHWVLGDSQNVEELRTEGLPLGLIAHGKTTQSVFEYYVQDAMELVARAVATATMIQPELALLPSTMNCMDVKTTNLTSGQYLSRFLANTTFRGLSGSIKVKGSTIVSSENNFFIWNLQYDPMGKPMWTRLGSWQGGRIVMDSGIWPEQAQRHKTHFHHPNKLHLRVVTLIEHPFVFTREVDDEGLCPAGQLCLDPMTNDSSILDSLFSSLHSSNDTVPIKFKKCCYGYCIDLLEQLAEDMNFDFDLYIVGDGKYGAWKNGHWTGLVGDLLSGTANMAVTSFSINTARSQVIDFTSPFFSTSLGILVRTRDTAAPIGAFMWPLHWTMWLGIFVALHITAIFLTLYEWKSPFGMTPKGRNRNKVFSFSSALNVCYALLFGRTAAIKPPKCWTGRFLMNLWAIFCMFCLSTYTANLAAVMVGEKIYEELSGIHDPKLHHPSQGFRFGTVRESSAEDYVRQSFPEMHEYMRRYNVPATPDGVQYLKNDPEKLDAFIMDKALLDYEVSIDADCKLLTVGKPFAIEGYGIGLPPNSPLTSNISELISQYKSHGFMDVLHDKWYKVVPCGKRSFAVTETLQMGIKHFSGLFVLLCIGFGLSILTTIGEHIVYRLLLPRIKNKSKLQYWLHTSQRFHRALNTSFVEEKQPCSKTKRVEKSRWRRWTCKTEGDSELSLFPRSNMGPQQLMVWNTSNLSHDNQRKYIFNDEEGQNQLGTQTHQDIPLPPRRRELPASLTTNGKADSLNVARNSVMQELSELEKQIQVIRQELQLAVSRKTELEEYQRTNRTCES
UniProt Q01097, residues 27-1482: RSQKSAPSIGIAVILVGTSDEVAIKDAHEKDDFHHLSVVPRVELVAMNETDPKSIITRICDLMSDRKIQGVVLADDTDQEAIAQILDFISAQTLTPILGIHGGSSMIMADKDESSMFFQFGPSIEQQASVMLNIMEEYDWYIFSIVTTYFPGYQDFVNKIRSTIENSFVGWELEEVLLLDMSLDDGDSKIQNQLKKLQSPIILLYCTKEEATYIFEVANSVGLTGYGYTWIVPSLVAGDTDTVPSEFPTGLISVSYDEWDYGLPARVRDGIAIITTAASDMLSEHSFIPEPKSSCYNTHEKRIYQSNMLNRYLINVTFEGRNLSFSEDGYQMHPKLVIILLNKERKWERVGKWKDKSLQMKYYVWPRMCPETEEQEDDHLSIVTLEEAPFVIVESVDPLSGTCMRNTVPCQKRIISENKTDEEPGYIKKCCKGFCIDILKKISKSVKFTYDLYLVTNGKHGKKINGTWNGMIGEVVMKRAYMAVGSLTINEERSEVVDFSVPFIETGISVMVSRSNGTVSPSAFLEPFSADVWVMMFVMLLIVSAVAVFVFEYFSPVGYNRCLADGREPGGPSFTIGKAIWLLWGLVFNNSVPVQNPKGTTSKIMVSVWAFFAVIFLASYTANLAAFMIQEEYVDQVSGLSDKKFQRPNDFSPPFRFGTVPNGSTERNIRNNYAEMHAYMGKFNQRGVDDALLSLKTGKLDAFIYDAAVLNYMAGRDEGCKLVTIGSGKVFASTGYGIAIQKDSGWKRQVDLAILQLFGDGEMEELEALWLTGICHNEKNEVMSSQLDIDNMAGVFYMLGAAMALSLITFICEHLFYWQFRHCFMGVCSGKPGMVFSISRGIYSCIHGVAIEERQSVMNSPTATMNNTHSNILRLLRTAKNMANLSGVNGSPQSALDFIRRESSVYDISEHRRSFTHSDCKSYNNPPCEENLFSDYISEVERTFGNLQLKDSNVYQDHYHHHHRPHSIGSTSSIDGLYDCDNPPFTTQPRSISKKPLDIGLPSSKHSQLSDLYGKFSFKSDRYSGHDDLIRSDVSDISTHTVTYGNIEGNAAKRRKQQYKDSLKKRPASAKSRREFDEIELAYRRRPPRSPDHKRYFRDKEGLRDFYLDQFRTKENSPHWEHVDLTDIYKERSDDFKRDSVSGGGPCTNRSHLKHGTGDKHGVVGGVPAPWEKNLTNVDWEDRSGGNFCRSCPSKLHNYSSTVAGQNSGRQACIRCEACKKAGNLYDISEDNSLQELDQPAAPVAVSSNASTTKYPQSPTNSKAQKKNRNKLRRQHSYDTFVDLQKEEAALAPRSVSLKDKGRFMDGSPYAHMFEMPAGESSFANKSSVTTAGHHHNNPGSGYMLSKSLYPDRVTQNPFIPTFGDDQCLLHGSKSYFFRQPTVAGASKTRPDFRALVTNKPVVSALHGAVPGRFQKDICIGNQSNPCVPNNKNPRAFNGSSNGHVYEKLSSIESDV
UniProt Q03391, residues 28-1323: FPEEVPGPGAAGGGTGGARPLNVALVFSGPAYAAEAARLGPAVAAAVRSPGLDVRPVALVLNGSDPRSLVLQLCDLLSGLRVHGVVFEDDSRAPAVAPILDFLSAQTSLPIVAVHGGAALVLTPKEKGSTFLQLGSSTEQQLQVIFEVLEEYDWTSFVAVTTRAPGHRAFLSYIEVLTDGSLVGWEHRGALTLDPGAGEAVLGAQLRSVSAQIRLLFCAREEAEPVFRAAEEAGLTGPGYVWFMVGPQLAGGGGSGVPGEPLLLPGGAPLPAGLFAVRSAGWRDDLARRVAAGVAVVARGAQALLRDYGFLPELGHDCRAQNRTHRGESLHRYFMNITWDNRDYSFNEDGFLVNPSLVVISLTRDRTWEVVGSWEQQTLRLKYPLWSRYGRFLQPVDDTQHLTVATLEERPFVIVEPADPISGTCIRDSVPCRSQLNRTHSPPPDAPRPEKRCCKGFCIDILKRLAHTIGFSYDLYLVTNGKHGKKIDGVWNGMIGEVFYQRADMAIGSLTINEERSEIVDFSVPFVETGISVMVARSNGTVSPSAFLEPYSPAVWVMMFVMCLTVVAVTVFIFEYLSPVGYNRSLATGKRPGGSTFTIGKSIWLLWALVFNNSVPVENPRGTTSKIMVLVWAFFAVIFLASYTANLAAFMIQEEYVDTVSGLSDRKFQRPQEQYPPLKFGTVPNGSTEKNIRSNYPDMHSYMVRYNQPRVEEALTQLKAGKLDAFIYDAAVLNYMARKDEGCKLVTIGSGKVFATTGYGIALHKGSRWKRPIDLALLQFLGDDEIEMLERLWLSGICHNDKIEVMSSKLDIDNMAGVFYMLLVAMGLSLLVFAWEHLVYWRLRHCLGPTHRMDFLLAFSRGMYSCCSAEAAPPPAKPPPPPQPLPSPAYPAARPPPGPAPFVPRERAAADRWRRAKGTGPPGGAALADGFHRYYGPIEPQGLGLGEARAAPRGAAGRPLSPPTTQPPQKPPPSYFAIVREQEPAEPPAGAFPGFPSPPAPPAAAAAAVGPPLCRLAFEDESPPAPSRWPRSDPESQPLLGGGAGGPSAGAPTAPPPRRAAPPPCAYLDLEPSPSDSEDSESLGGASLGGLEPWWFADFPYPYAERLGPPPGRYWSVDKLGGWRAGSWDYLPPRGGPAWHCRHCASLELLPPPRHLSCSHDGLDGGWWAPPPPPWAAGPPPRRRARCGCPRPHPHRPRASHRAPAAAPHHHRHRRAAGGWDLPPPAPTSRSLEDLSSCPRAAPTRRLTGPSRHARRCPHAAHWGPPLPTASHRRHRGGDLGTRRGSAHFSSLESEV
UniProt Q01098, residues 20-1239: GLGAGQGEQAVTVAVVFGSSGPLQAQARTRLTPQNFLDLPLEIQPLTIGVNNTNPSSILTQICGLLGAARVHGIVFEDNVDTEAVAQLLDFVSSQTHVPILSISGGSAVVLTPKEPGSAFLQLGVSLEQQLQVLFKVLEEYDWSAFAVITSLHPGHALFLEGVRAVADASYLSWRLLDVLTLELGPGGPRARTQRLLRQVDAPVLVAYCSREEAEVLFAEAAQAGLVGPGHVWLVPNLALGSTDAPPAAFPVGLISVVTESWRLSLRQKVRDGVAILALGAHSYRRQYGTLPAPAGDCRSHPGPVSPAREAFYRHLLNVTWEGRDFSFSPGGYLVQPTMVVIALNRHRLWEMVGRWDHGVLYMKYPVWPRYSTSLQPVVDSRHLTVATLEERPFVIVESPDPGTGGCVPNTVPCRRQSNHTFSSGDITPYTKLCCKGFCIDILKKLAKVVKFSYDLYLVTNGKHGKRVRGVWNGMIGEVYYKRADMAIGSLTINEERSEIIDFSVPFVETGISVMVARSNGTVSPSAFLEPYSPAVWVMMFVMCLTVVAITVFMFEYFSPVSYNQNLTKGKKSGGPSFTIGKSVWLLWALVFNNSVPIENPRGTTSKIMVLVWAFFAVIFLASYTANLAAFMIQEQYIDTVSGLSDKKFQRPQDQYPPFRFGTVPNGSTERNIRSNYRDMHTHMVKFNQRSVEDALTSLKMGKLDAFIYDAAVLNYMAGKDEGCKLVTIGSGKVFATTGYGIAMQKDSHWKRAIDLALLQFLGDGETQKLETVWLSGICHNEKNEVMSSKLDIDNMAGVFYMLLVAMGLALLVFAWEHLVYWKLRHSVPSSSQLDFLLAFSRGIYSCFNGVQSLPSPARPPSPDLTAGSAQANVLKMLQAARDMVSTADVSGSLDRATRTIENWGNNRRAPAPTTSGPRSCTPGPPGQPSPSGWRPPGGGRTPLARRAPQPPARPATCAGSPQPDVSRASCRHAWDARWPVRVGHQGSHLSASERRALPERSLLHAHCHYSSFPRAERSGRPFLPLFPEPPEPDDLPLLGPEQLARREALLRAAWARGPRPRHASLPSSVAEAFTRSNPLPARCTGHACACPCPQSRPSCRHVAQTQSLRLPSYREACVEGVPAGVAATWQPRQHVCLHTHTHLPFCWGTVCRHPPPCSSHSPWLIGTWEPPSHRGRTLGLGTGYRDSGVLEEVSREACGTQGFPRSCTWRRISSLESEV

| Substance | binding |
| --- | --- |
| GluN2B, endogenous in mouse brain (from UniProt Q01097 27-1482) (receptor) | binds |
| GluN2D, endogenous in mouse brain (from UniProt Q03391 28-1323) (receptor) | no binding |
| GluN2C, endogenous in mouse brain (from UniProt Q01098 20-1239) (receptor) | no binding |
